Drawing on US20240076389A1, this text covers binding for five molecules.

The labels stand for the following.
B1: F107-8D12 (antibody, V domains shown)
VH: QVQLQQPGAELVKPGASVQLSCKASGYTFISFWINWVKQRPGQGLEWMGNIFPGSSSTNYNEKFKSKATLTVDKSSSTAYMQLSSLTSEDSAVYFCARDYYGGSPDYWGQGTTLTVSS
VL: DIVMSQSPSSLAVSAGERVTMSCKSSQSLLNTRTRKNYLAWYQQKPGQSPKLLIYWASTRESGVPDRFTGSGSGTDFTLTISSVQAEDLAVYYCKQSYNLWTFGGGTKLEIK
B2: F107-7H5 (antibody, V domains shown)
VH: QVQLQQPGAELVKPGASVKLSCKASGYTFTSYWINWVKQRPGQGLEWIGNIYPDSSSTNYNEKFKSKATLTVDKSSTTAYIQFSSLTSEDSAVYYCTRDTYGGSPDYWGQGTTLTVSS
VL: DIVMSQSPSSLAVSAGEKVTMSCKSSQSLLNSRTRKIYLAWYQQKPGQSPKLLIYWASTRQSGVPDRFTGSGSGTDFTLTISSVQAEDLAVYYCKQSYNLWTFGGGTKLEIK
B3: F107-10G1 (antibody, V domains shown)
VH: EVNLVESGGGVVKPGASLKLSCEASGFTFSNYGMSWVRQTSDKRLEWVASISGGGGRTYYLDNVKGRFIISRENAKNTLYLQMSSLKSEDTALFYCARGARASYFAMDYWGQGSSVTVSS
VL: VIVMTQSHKFMSTSVGDRVSITCKASQDVTTAVAWYQQKPGQSPKLLIYWASTRHTGVPDRFTGSGSGTDYSLTISNVQTEDLAFYYCQQHFTTPLTFGAGTKLELK
B4: F111-5E9 (antibody, V domains shown)
VH: QIQLVQSGPELKKPGETVKISCKASGYTFTKYGMNWVKQAPGKGLKWMGWINTYTGEPTYADDFKGRFAFSLETSASTAYLQINNLTTEDMVTYFCAKGGYYSNPIYPMDYWGQGTSVTVSS
VL: DIQMTQTTSSLSASLGDRVTISCRASQDINNYLNWYQQKPDGTVKLLIYYISRLHSGVPSRFSGSGSGTDYSLTISNLELEDVATYFCQQGNTLPFTFGSGTKLEIK
B5: F111-3C8 (antibody, V domains shown)
VH: QVQLQQPGAELGKPGTSVKLSCKASGYTFTSYWMHWVKRVPGQGLEWIGNINPNSTSADYNEKFKRKATLTVDKSSSTAYMQLSTLTSEDSAVYYCTRPLMGPYWYFDVWGTGTTVTVSS
VL: QIVLTQSPAIMSASPGEKVTISCSASSSVSYMYWYQQKPGSSPKPWIYRTSNLASGVPARFSGSGSGTSYSLTISSMEAEDAATYYCQQYHNYPPTFGGGTKLEIK

Results are given in words; binding and its absence hold for the method and conditions named. Some binding calls cover weakened binding; strength is not graded here.

This assay deals with AXL fragment # 10 (AXL amino acids 26-450, IgL1+IgL2+FN III-1+FN III-2+). Briefly: yeast surface display of hAXL fragments (Aga2-HA-(hAXL)-MYC), whole yeast cell ELISA, signal normalised to anti-MYC. For orientation: An ELISA detects its analyte on a solid surface through an enzyme-linked reagent.
As to B1, the binding result was “binds”.

Take B2: the binding result is “binds”.

For the molecule B3, the binding result is “binds”.

With B4, the binding entry was “binds”.

Take B5: the binding entry is “binds”.
